In PubChem BioAssay (NCATS):
This list was built around the results that the source calls inconclusive (neither active nor inactive); the mix of calls is not that of the screen. Where the call is inconclusive, the potency comes from a doubtful curve fit. Calls of active or inactive are those of the source. Calls come from the whole dose curve; as a rule, active = well fitted curve in the direction sought with a large enough effect; inconclusive = small, poorly fitted or top-dose-only effect, or another doubt; inactive = no such curve, though single readings can be large; an effect the other way counts as inactive or inconclusive.

Columns and labels:
[1] = qHTS screen for small molecules that inhibit ELG1-dependent DNA repair: Hit Confirmation with MMS Viability (AID 624251); note: nearly all actives have a fitted effect of over 60% in size
Outline: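 Viability read-out: CellTiter-Glo, 16 h after compound addition. Cell line ELG1-luc HEK293T; DNA-damaging co-treatment MMS, 10 µM final.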

[2] = qHTS screen for small molecules that inhibit ELG1-dependent DNA repair: Hit Confirmation with 5FU Viability (AID 624250)
Outline: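 5-Fluorouridine (final 10 µM) was added alongside compounds to HEK293T cells carrying the ELG1-luc reporter, about 5 h after seeding. After 16 h, viable cells were quantified by CellTiter-Glo.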
Potency is the fitted concentration of half-maximal effect.

SMILES | Potency [1] | Potency [2]
CC(C)(C)OC(=O)NCc1ccc(NC(=O)c2nc[nH]c2C(=O)NCCNC(=O)c2[nH]cnc2C(=O)Nc2ccc(CNC(=O)OC(C)(C)C)cc2)cc1 | inconclusive: 8.88 µM [cytotoxic, full curve] | 
COc1cccc(-c2nc(-c3ccc4c(c3)-c3ccccc3S4(=O)=O)c(-c3ccccc3)[nH]2)c1OC | inconclusive: 0.0177 µM [rising, full curve, poor fit] | inconclusive: 0.996 µM [rising, full curve]
O=C(CSc1nc2ccccc2c(=O)n1-c1ccccc1)N/N=C/C=C/c1ccccc1[N+](=O)[O-] | inconclusive: 0.126 µM [rising, partial curve, poor fit] | inconclusive: 3.54 µM [rising, full curve, poor fit]
Cc1c(NC(=O)c2cc(-c3cccs3)nc3ccccc23)c(=O)n(-c2ccccc2)n1C | inconclusive: 22.3 µM [cytotoxic, partial curve] | 
COc1cc(/C=N/NC(=O)c2ccc(CN3c4cccc5cccc(c45)S3(=O)=O)cc2)cc(OC)c1O | active: 25 µM | inconclusive: 1.12 µM [rising, full curve]
Cc1ccc(C2=NN(C(=O)CCl)C(c3ccco3)C2)o1 (stereo not given) | active: 7.05 µM | inconclusive: 28.1 µM [cytotoxic, partial curve, poor fit]
CC(=O)N1c2ccc(S(=O)(=O)NCCC(=O)NCc3ccc(N(C)C)cc3)cc2CC1C (stereo not given) | inactive | inconclusive: 6.28 µM [rising, partial curve]
COc1ccc(NC(=O)Cc2c(C)n(C(=O)c3ccc(Cl)cc3)c3ccc(OC)cc23)cc1 | inactive | inconclusive: 14.1 µM [rising, partial curve, poor fit]
Cc1cccc(N2CCN(C3=NC(=O)/C(=C\c4cn[nH]c4-c4ccccc4)S3)CC2)c1 | inconclusive: 25 µM [cytotoxic, single point] | inconclusive: 0.354 µM [rising, full curve, poor fit]
COc1cc(C)c(CN2CCN(CC(=O)Nc3ccccc3C(=O)NC3CC3)CC2)cc1OC | inactive | inconclusive: 1.41 µM [rising, full curve]
CC(C)(C)OC(=O)NCCCCCNC(=O)c1ncn(Cc2ccccc2)c1C(=O)NCCCCCNC(=O)OC(C)(C)C | inconclusive: 1.58 µM [rising, partial curve, poor fit] | 
COc1ccc(-c2csc(NC(=O)c3ccc(OCC(=O)N4CCOCC4)c(OC)c3)n2)cc1OC | active: 25 µM | inconclusive: 28.1 µM [cytotoxic, single point]
CC(C)(C)C(=O)Nc1ccc(S(=O)(=O)N2CCC(c3nc4ccccc4[nH]3)CC2)cc1 | inactive | inconclusive: 1.41 µM [rising, full curve]
COc1ccc(S(=O)(=O)Nc2ccc3oc(C)c(C(C)=O)c3c2)cc1 | active: 3.97 µM | inactive
COc1ccc(NC(=O)c2cc(-c3cc(OC)c(OC)c(OC)c3)nc3ccccc23)cc1OC | inconclusive: 0.0499 µM [rising, full curve, poor fit] | inconclusive: 0.499 µM [rising, full curve]
Cc1ccc(C)c(N2CCN(C(=O)CCS(=O)(=O)c3ccc4c(c3)NC(=O)C(C)S4)CC2)c1 (stereo not given) | active: 1.99 µM | inconclusive: 35.3 µM [cytotoxic, single point]
COc1cccc(-c2nc3c(c(SCC(=O)N4CCOCC4)n2)Cc2c(CO)cnc(C)c2O3)c1 | inconclusive: 15.8 µM [cytotoxic, partial curve] | inconclusive: 35.4 µM [rising, partial curve, poor fit]
Cc1c(C)c2ccc(OCC(=O)N3CCN(C(=O)C4COc5ccccc5O4)CC3)cc2oc1=O (stereo not given) | inactive | inconclusive: 1.12 µM [rising, full curve, poor fit]
CC(C)(C)OC(=O)C[C@@H]1C/C=C\C[C@@H](CC(=O)N(CCO)Cc2ccccc2)C(=O)NC[C@H](c2ccccc2)OC1=O | inconclusive: 15.8 µM [cytotoxic, partial curve, poor fit] | 
COc1ccc(-c2cc(-c3ccc(C)cc3)nc(SCc3nnc(-c4ccccc4)o3)c2C#N)cc1OC | inactive | 

Taken from the entries so far (2 entries):
SMILES | Potency [1] | Potency [2]
CC(C)(C)OC(=O)C[C@@H]1C/C=C\C[C@@H](CC(=O)N(CCO)Cc2ccccc2)C(=O)NC[C@H](c2ccccc2)OC1=O | inconclusive: 15.8 µM [cytotoxic, partial curve, poor fit] | 
COc1ccc(-c2cc(-c3ccc(C)cc3)nc(SCc3nnc(-c4ccccc4)o3)c2C#N)cc1OC | inactive | 
